Data as given in publication PMC12402098, “YTHDF3 recognizes DNA N6-methyladenine and recruits ALKBH1 for 6mA removal from genomic DNA” (The EMBO Journal, 2025).

Target: T1, YTHDF3 MTbind L455M,L461V,V482A,A487T,Y488C,E502D,K504R (UniProt Q7Z739)
T1 sequence (looked up, limits assumed): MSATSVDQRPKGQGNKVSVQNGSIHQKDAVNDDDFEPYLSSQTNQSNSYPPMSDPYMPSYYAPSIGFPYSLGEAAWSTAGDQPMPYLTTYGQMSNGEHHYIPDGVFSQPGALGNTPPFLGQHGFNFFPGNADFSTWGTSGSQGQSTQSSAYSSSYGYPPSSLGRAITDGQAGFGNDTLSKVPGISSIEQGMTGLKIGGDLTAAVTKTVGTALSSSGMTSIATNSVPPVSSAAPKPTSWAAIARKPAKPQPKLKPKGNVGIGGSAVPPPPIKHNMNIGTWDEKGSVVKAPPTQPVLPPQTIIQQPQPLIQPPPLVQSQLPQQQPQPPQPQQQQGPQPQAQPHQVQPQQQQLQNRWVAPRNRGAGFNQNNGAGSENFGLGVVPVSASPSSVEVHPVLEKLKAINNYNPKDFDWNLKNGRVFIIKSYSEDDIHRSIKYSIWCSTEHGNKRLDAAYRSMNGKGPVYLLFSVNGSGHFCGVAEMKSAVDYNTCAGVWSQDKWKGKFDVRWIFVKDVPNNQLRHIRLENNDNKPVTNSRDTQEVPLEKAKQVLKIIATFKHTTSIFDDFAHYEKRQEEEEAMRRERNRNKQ
Assay: EMSA, pull-down
Details: N6-methyl-dA at A10 of strand 1; EMSA: LightShift kit, 30 C 20 min, then 2% glutaraldehyde on ice 15 min, 5% native gel; recombinant protein; protein details: His; label: 3' biotin strand 1

## CTATGTTTCATGTACCGCCA (double strand) [6mA-ds-oligo]
  binding result: binds

Construct, isoform or probe ends are uncertain for at least one entry. Where a protein sequence is shown, tags need not be part of it.
